Source: patent US20250188151A1 (The University of Bath, priority 2022, published 2025)
For at least one entry, the source does not settle the construct or the ends of the probe.

Amino acid sequences for entries named in this document (tags omitted). Chains listed by the source or under a name are the forms on record and can include a tag or linker.
UniProt P05412, other isoform, or with tags, fused parts or gaps: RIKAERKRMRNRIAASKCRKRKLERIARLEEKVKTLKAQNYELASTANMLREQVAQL

Biological target: c-Jun bZIP (Arg252-Leu308) (Homo sapiens) (UniProt P05412)
Assay: binding assay
Settings: CITED Seldeen et al. 2011; c-Jun dimer/TRE; purified recombinant protein; protein details: His-SUMO cleaved, C-terminal GAP cap

## GTCAGTCAGTGACTCAATCGGTCA (double strand) [TRE duplex]
  binding result: binds
